This is one part of the list.
target: OsWRKY34 (Oryza sativa, UniProt Q0JBA9 1-250); assay: protein-binding microarray (RPBM); PBS, 2% BSA, 51.3 ng/ul salmon testes DNA, 50 uM zinc acetate, 200 nM TF, 25 C, 1 h; high values mean tight binding; conditions: protein: recombinant; tags: N-terminal polyhistidine and DsRed monomer fusion (pET32a); label: CyDye5-dUTP incorporated in the synthesized complementary strand; 3' TTTTT single-stranded linker to array surface; dsDNA, one strand shown
How it was run: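 Binding signal here means per-feature fluorescence intensity in arbitrary units. The values were read on an Axon 4000B scanner after a custom Agilent array, double-stranded by primer extension with Cy5-dUTP, was incubated with 200 nM protein at 25 °C for 1 h in PBS with 2% BSA, salmon testes DNA and 50 µM zinc acetate, then washed. The proteins were transcription factors with an N-terminal polyhistidine tag and DsRed, expressed in E. coli BL21-CodonPlus and purified on Ni–NTA.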

Chains of the proteins cited; added tags and fusions are not shown.
UniProt Q0JBA9, entry or part of it: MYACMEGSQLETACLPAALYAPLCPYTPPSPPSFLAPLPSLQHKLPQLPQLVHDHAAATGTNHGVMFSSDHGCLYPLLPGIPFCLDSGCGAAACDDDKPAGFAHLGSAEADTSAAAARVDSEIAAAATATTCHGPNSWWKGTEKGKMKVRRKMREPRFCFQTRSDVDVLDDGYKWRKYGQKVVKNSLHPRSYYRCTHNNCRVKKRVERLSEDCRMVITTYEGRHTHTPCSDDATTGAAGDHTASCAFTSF

Sequence	binding signal
TGGTCGAGTGCATTTTTTTATTTCTTGTCATCGACAAGTACGGAGTCACCTAGTGCAG	10300 fluorescence intensity (a.u.)
AAATTGAGGTGGCCTGTCTGTGCATCTGTGGAACATCATTCGGAGTCACCTAGTGCAG	9220 fluorescence intensity (a.u.)
GGTACCTCTAATACTGTCGTCCGGTTGAATTTTTCGTGTACGGAGTCACCTAGTGCAG	9950 fluorescence intensity (a.u.)
ACCGATACCTATAGTCATTTTCCCACCTTTATACCATAAACGGAGTCACCTAGTGCAG	9070 fluorescence intensity (a.u.)
ACCTCCGGCCCAAGTACATTCATCCGGCCCAGCTTCACGACGGAGTCACCTAGTGCAG	8180 fluorescence intensity (a.u.)
TTTTAAATAACCGTGTCTTGCTTTTTGGATGTATTCCAACCGGAGTCACCTAGTGCAG	8140 fluorescence intensity (a.u.)
CCCCTGCAACCCACTGTGCCTGTGCCCTCGACGCGTCTCCCGGAGTCACCTAGTGCAG	10600 fluorescence intensity (a.u.)
GGGGTTCGTTTTGTTTCTTGACACACGCTTGAGTCTTATTCGGAGTCACCTAGTGCAG	16900 fluorescence intensity (a.u.)
CCTTCTCTCTCACCTGCGCACACGTACTGTACATATATACCGGAGTCACCTAGTGCAG	9880 fluorescence intensity (a.u.)
CAACTGTGACGATGACCTCTCTGTAGATTCTTTTAATTTTCGGAGTCACCTAGTGCAG	8920 fluorescence intensity (a.u.)
CGGACGCGTTGCTTTTGTTTCTTCTTGGCAACCATGATCGCGGAGTCACCTAGTGCAG	9200 fluorescence intensity (a.u.)
CCGCTGCTAAGATTTTGCCACAATGCCATTCCGCGGAATGCGGAGTCACCTAGTGCAG	8660 fluorescence intensity (a.u.)
ACTATCCTTGTCATTCCTGGTCTGGATTGAATCCGGGCGTCGGAGTCACCTAGTGCAG	8110 fluorescence intensity (a.u.)
CGAAGAAATTTACCAGTGCTCCTAATTGCTACTGATCACCCGGAGTCACCTAGTGCAG	8110 fluorescence intensity (a.u.)
GTCATCCAAATCATGCCATTTCTCGTTATTGCTTCGTCAACGGAGTCACCTAGTGCAG	8630 fluorescence intensity (a.u.)
TCACTTGCACCTCGCGACCCATTTTAGCCTCTTGCTGTCCCGGAGTCACCTAGTGCAG	8620 fluorescence intensity (a.u.)
AATATTCTCATGTAAAGGGCAACATCTTCTACTTAATATCCGGAGTCACCTAGTGCAG	8640 fluorescence intensity (a.u.)
CTTGTAGCTGTAATTCCCTATTGTTGTTTTTCGGTACTGTCGGAGTCACCTAGTGCAG	13200 fluorescence intensity (a.u.)
CTCTAATCCATTGCCTCGTTTTTCTCTATAGACTATTTCCCGGAGTCACCTAGTGCAG	9440 fluorescence intensity (a.u.)
TTGTGTTTGGGCGGGAGAATTTTTGGGGATAGATTTGCGCCGGAGTCACCTAGTGCAG	18500 fluorescence intensity (a.u.)
GTCATGTGAAGTAGCGCCTTGAGTCATCATCGTCAACGCTCGGAGTCACCTAGTGCAG	8290 fluorescence intensity (a.u.)

Sequence	binding signal
ATGTTTGACCATTCATCTTATTCAAAAAATTTACGTAATTCGGAGTCACCTAGTGCAG	8410 fluorescence intensity (a.u.)
CGCCGACGTCACCGCCACCCGTTGACATTGCTCTATAAAACGGAGTCACCTAGTGCAG	8900 fluorescence intensity (a.u.)
ATTTGAAAATATTGTTTGAAGTTGTCATATTTTCAAATTCCGGAGTCACCTAGTGCAG	8450 fluorescence intensity (a.u.)
CATATGTAATGTATACTGTTCGTTTTCTTTTTTCCATGATCGGAGTCACCTAGTGCAG	9430 fluorescence intensity (a.u.)
AATTGGACTCGTTTGACCGTTTGATTTATGACTCCATATTCGGAGTCACCTAGTGCAG	12100 fluorescence intensity (a.u.)
CGTTGCAGATCCTGGTTCTTCCACTGCCTTTTGGCTTTTGCGGAGTCACCTAGTGCAG	9100 fluorescence intensity (a.u.)
CGCGCGCCGTCTGAGTTTTCATTTTGGATCTTGCGTGGGTCGGAGTCACCTAGTGCAG	12200 fluorescence intensity (a.u.)
CTGGTCTCTGCCCTTTAGCCTTTATTCGTCCTGTTCCTTTCGGAGTCACCTAGTGCAG	11200 fluorescence intensity (a.u.)
TCTAGTGCCTTTGTTGCTTCATGCCCCTGACTAAGTTCATCGGAGTCACCTAGTGCAG	11900 fluorescence intensity (a.u.)
ATATGCATTCTTTCATTCACTTGTCCATTCTTCTTTGCCTCGGAGTCACCTAGTGCAG	8850 fluorescence intensity (a.u.)
GCACATTGATCCAGAAAGCAATTTTTTCTTCATTTTTCATCGGAGTCACCTAGTGCAG	9050 fluorescence intensity (a.u.)
CATGTTTGGCAGTGTTCGTTCCCACGTTTCGATATAGCGACGGAGTCACCTAGTGCAG	10900 fluorescence intensity (a.u.)
ATTTTTATTTTCATGGTGTTTTAGACCATCCTTAATTTTACGGAGTCACCTAGTGCAG	8490 fluorescence intensity (a.u.)
TGGTTATTGGCTATTCTGAACTATTTTTATTTACTGAAGCCGGAGTCACCTAGTGCAG	8850 fluorescence intensity (a.u.)
GATCCTCTGCCCCTTTTACTCGCATCCTCCCATGTGCAAACGGAGTCACCTAGTGCAG	9400 fluorescence intensity (a.u.)
TTTCTTGAACTTGGGGCCATTTTTCCACGTTGTAACTGTCCGGAGTCACCTAGTGCAG	9410 fluorescence intensity (a.u.)
CTCTGTTTCAGGTTATAAGACTTTCTAGTATTGCCCACATCGGAGTCACCTAGTGCAG	8700 fluorescence intensity (a.u.)
ACTCACGCTTTAACACCAGGAATCTTATCTCTATCTCATCCGGAGTCACCTAGTGCAG	8460 fluorescence intensity (a.u.)
TCAATCTGGCGGGGTTTATTTGTGACCCTCGATCGGTCAACGGAGTCACCTAGTGCAG	12400 fluorescence intensity (a.u.)
ATGAATAGTACTTTATGTGTGACTAATATTTTTAATTTTTCGGAGTCACCTAGTGCAG	8040 fluorescence intensity (a.u.)
GAACTCCACGGCCACCTCCGGTCAAACCGCAGTGCTCACCCGGAGTCACCTAGTGCAG	8260 fluorescence intensity (a.u.)

For convenience, some entries already given.
Sequence	binding signal
CTGGTCTCTGCCCTTTAGCCTTTATTCGTCCTGTTCCTTTCGGAGTCACCTAGTGCAG	11200 fluorescence intensity (a.u.)
TCTAGTGCCTTTGTTGCTTCATGCCCCTGACTAAGTTCATCGGAGTCACCTAGTGCAG	11900 fluorescence intensity (a.u.)
ATATGCATTCTTTCATTCACTTGTCCATTCTTCTTTGCCTCGGAGTCACCTAGTGCAG	8850 fluorescence intensity (a.u.)
GCACATTGATCCAGAAAGCAATTTTTTCTTCATTTTTCATCGGAGTCACCTAGTGCAG	9050 fluorescence intensity (a.u.)
CATGTTTGGCAGTGTTCGTTCCCACGTTTCGATATAGCGACGGAGTCACCTAGTGCAG	10900 fluorescence intensity (a.u.)
ATTTTTATTTTCATGGTGTTTTAGACCATCCTTAATTTTACGGAGTCACCTAGTGCAG	8490 fluorescence intensity (a.u.)
TGGTTATTGGCTATTCTGAACTATTTTTATTTACTGAAGCCGGAGTCACCTAGTGCAG	8850 fluorescence intensity (a.u.)
GATCCTCTGCCCCTTTTACTCGCATCCTCCCATGTGCAAACGGAGTCACCTAGTGCAG	9400 fluorescence intensity (a.u.)
TTTCTTGAACTTGGGGCCATTTTTCCACGTTGTAACTGTCCGGAGTCACCTAGTGCAG	9410 fluorescence intensity (a.u.)
CTCTGTTTCAGGTTATAAGACTTTCTAGTATTGCCCACATCGGAGTCACCTAGTGCAG	8700 fluorescence intensity (a.u.)
ACTCACGCTTTAACACCAGGAATCTTATCTCTATCTCATCCGGAGTCACCTAGTGCAG	8460 fluorescence intensity (a.u.)
TCAATCTGGCGGGGTTTATTTGTGACCCTCGATCGGTCAACGGAGTCACCTAGTGCAG	12400 fluorescence intensity (a.u.)

From publication PMC7819943, “Rice protein-binding microarrays: a tool to detect cis-acting elements near promoter regions in rice”
